This passage reports binding results from paper doi:10.1101/2020.12.25.424096.

No constants are given. Whether binding was seen depends on the method and setting. Binding calls can cover weak binding; strength is not graded here.

The target in this test is T1, C1 esterase inhibitor (C1-Inh) (UniProt P05155).
T1 sequence: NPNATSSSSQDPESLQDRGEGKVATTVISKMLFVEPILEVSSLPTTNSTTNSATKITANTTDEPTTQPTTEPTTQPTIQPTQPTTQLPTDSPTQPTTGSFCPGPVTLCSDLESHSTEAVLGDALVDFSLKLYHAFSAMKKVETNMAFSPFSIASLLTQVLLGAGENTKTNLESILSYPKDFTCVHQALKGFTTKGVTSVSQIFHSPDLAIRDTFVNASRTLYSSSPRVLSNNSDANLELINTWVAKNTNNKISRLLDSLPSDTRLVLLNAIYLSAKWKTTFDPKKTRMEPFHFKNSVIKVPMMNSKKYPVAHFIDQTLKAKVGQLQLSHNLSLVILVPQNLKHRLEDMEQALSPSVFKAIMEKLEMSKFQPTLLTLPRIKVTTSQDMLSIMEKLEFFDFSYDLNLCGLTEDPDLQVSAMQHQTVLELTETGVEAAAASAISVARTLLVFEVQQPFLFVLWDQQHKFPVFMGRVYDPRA
Briefly: ELISA. In general terms: An ELISA detects its analyte on a solid surface through an enzyme-linked reagent.

For the substance “passenger domain of Vag8 (Vag8p), recombinant Vag8 protein (from UniProt Q79GN7) (domain or fragment)”, the binding result is listed as “binds”.
